Results on 1 molecule are retold here after article PMC10334838.

Results are given in words; binding and its absence hold for the method and conditions named. Binding seen in cells or lysates may run through a third protein. Some entries that bind do so weakly or less than the wild type.

For the assay, the target named is T1, endogenous TRAF6 (mouse peritoneal exudate macrophages) (mouse (endogenous in peritoneal exudate macrophages)) (UniProt P70196).
T1 sequence: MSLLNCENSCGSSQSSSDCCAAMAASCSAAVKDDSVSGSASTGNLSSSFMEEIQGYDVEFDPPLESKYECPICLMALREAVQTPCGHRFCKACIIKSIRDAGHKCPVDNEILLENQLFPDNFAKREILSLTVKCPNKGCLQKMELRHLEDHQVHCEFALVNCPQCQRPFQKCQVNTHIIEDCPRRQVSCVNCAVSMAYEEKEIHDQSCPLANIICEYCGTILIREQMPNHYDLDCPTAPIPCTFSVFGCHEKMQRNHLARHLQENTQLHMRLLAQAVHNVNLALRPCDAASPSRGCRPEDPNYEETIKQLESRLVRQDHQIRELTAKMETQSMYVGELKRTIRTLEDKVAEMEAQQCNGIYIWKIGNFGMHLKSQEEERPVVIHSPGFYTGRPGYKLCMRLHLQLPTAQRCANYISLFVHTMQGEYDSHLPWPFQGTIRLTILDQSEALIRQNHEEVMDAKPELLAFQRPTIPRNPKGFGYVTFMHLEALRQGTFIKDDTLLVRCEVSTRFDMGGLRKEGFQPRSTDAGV
The experiment in a line: co-IP; endogenous proteins in mouse PEMs, untreated and challenged with LPS (100 ng/mL) for the indicated times.

B1: endogenous Sufu (mouse peritoneal exudate macrophages) (protein, UniProt Q9Z0P7 1-484)
chain: MAELRPSVAPGPAAPPASGPSAPPAFASLFPPGLHAIYGECRRLYPDQPNPLQVTAIVKYWLGGPDPLDYVSMYRNMGSPSANIPEHWHYISFGLSDLYGDNRVHEFTGTDGPSGFGFELTFRLKRETGESAPPTWPAELMQGLARYVFQSENTFCSGDHVSWHSPLDNSESRIQHMLLTEDPQMQPVRTPFGVVTFLQIVGVCTEELHSAQQWNGQGILELLRTVPIAGGPWLITDMRRGETIFEIDPHLQERVDKGIETDGSNLSGVSAKCAWDDLSRPPEDEEDSRSICLGTQPRRLSGKDTEQIRETLRRGLEINSKPVLPPINSQRQNGLTHDRAPSRKDSLGSDSSTAIIPHELIRTRQLESVHLKFNQESGALIPLCLRGRLLHGRHFTYKSITGDMAITFVSTGVEGAFATEEHPYAAHGPWLQILLTEEFVEKMLEDLEDLTSPEEFKLPKEYSWPEKKLKVSILPDVVFDSPLH
On to B1, for which the binding entry is “binds”.
